Reference: PubChem BioAssay AID602196 (INSERM, 2012)
This is one part, drawn at random, of about 23,000 deposited reagents. 455 of them (2%) were called active. 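Active includes both protection and sensitisation; some change values fall well beyond the stated -50 to +50 range.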 Reagent sequences are not shown. The record does not give: the amount of reagent.

- Test: 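Modifiers of cisplatin sensitivity in A549 cells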
- Cells: human A549 lung cancer cells
- Knock-down reagent: siRNA pair against human genes
- Time to read-out: 48 h transfection before cisplatin; time from cisplatin to read-out not stated
- Challenge: cisplatin at a dose killing half of control-siRNA cells; exact dose and duration not given
- Detection: 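Cisplatin cell death as a shift from the 50% death seen with control siRNA; siRNAs toxic or growth-blocking alone scored 0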
- Direction: two-siRNA summed score (-2 to +2): higher = both siRNAs protect from cisplatin killing; -2 means both sensitise; mean protection from cisplatin (shift in death) and protection from cisplatin (shift in death), siRNA C and protection from cisplatin (shift in death), siRNA D: higher = protection from cisplatin killing
- Rule for the call: 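siRNAs harmful alone (LDH or WST-1) get 0; others get +1 for less and -1 for more cisplatin killing; genes are active when the two siRNAs give the same sign, summing to ±2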
- Meaning of the calls: active = both siRNAs shift cisplatin killing the same way; inactive = no consistent shift, or siRNA harmful alone

no.	gene	two-siRNA summed score (-2 to +2)	mean protection from cisplatin (shift in death) (%)	protection from cisplatin (shift in death), siRNA C (%)	protection from cisplatin (shift in death), siRNA D (%)	outcome
1	MTCL3	0	6.7	10.8	2.6	inactive
2	SPATA46	0	5.7	10	1.4	inactive
3	KIF22	-1	-9.1	-0.3	-17.8	inactive
4	AKR7L	0	10.4	14.3	6.4	inactive
5	LOC219854	1	11.9	7.7	16.2	inactive
6	LOC440976	0	4.2	6.8	1.6	inactive
7	PRKX	-1	-5.9	0	-11.8	inactive
8	STAT3	-1	-12.3	0.7	-25.3	inactive
9	LOC389730	1	1.8	23.5	-19.8	inactive
10	FOXRED1	-1	-9.8	-0.9	-18.8	inactive
11	DVL2	0	-8.1	-16.6	0.5	inactive
12	MBOAT1	0	2.9	2.2	3.5	inactive
13	BPY2	0	5.7	21.3	-9.8	inactive
14	LOC440731	1	29	20.2	37.7	inactive
15	TLR7	0	-7.8	-23.2	7.6	inactive
16	LOC442273	1	21.5	14.4	28.6	inactive
17	LYSMD1	0	6	6.2	5.9	inactive
18	TMUB1	0	-1.8	3.5	-7.1	inactive
19	LOC439991	0	5.1	5.5	4.7	inactive
20	LOC440228	0	15	13.2	16.8	inactive
21	EFNA5	-1	-15.8	-12.1	-19.6	inactive
22	GSTCD	0	1.6	9.4	-6.1	inactive
23	UBQLN2	0	-3.1	-10.6	4.4	inactive
24	BDP1	0	3.5	3.6	3.3	inactive
25	CCDC91	0	-4.9	4.6	-14.4	inactive
26	CYP2D7	0	-0.4	14.8	-15.5	inactive
27	LOC441474	1	14.5	25.7	3.3	inactive
28	WBP11	0	5.2	8.6	1.8	inactive
29	LOC400651	0	5.5	3.4	7.5	inactive
30	SQSTM1	0	-12.3	-9.5	-15.1	inactive
31	CFHR3	0	2.1	-10.7	14.9	inactive
32	ZNF319	0	-7.9	-8.8	-6.9	inactive
33	DGAT1	1	10.3	22.1	-1.4	inactive

Laid out differently: entries from further up
gene	two-siRNA summed score (-2 to +2)	mean protection from cisplatin (shift in death) (%)	protection from cisplatin (shift in death), siRNA C (%)	protection from cisplatin (shift in death), siRNA D (%)	outcome
LOC389730	1	1.8	23.5	-19.8	inactive
FOXRED1	-1	-9.8	-0.9	-18.8	inactive
DVL2	0	-8.1	-16.6	0.5	inactive
MBOAT1	0	2.9	2.2	3.5	inactive
BPY2	0	5.7	21.3	-9.8	inactive
LOC440731	1	29	20.2	37.7	inactive
TLR7	0	-7.8	-23.2	7.6	inactive
LOC442273	1	21.5	14.4	28.6	inactive

Additional entries follow:
no.	gene	two-siRNA summed score (-2 to +2)	mean protection from cisplatin (shift in death) (%)	protection from cisplatin (shift in death), siRNA C (%)	protection from cisplatin (shift in death), siRNA D (%)	outcome
34	ACCS	0	-4.6	-11.1	1.9	inactive
35	ZNF137P	0	6.7	10	3.4	inactive
36	KIR2DS3	0	5.9	15.7	-3.8	inactive
37	DKFZp434E1119 (retired record)	0	9.3	18.7	0	inactive
38	ATP1B2	0	-0.9	-0.1	-1.7	inactive
39	ZNF346	0	8.1	11.8	4.5	inactive
40	SCG5	1	4.4	-8.5	17.3	inactive
41	WDSUB1	0	10.6	5.3	15.8	inactive
42	FLI1	-1	-16.7	-15.4	-18	inactive
43	CTBP2	0	17	20.9	13.2	inactive
44	SYNPO	0	9.1	8.8	9.4	inactive
45	PARK7	0	-6.3	-3.3	-9.2	inactive
46	GJA5	1	17.2	10.1	24.3	inactive
47	CHML	1	12.9	21.2	4.6	inactive
48	HSD11B2	0	10.5	17.2	3.8	inactive
49	LRRN1	0	7.2	24.5	-10.1	inactive
50	PPP4R3B	1	13	13.6	12.5	inactive
51	SLC3A1	0	-3	-3.3	-2.8	inactive
52	OTUD6B	0	5.8	8.8	2.9	inactive
53	NRIP3	0	-3.4	1.5	-8.3	inactive
54	LOC440388	0	16.9	10	23.7	inactive
55	LOC402244	-1	-11.5	-26.3	3.3	inactive
56	C9orf57	0	10.5	15.6	5.4	inactive
57	ETS2-AS1	0	0.8	2.1	-0.4	inactive
58	HEATR4	0	1.5	7.6	-4.5	inactive
59	OR52R1	0	12.4	12	12.9	inactive
60	LOC440490	0	-1.5	3.3	-6.4	inactive
61	LOC283226	0	7.1	11.9	2.3	inactive
62	BMS1	1	6.2	4.6	7.7	inactive
63	COX6A2	1	14.6	26.2	3	inactive
64	RWDD4	1	14.3	15.3	13.4	inactive
65	GPR55	0	6.4	15.7	-2.9	inactive
66	WIZ	0	4.9	22.6	-12.7	inactive
67	GDAP1L1	0	-2.9	-4.9	-0.9	inactive
68	LINC00311	0	-3.3	-17.7	11.1	inactive
69	LOC338902	0	7.2	6.1	8.3	inactive
70	DLST	0	8.5	9.1	7.9	inactive
71	IARS1	0	-1.9	-3.9	0.1	inactive
72	LOC440126	1	14.9	20.8	9	inactive
73	IGSF3	0	6.8	10.6	3.1	inactive
